The list does not hold the whole screen: it gathers tests that were run many times, whatever their T/C, doses with no T/C, and many T/C values between a quarter and a half above the control. Other doses and runs of a compound stand elsewhere. T/C is the treated group as % of the vehicle group. Some doses have a count of surviving animals in place of a T/C: the source files T/C as zero there, which appears to mark a toxic dose or a test without result, not a measured value. Some survivor counts are full or nearly so, which does not show that the dose was tolerated: survival well below the control is almost never listed, so the zero probably covers shortened survival too. Survivors were counted at the toxicity check, usually on the fifth day, unless a day is given; later deaths do not show. Schedule codes are those of the source, read here as Q, the interval in days (D) or hours (H), X, the number of doses. Some structures stand for samples that the source files as different forms (salt, stereo form or complex); doses refer to the form tested. Additions like (4×) say how often a value occurs here. Some schedule codes hold Z or #, which are not explained here. Where survival is the endpoint, the PubChem record calls one and a half times the control and up active, and a quarter to a half above the control has no call in these data; cut-offs in other NCI protocols can differ. Some doses were run more than once; their values stand side by side, smallest first. Some T/C values carry the count of animals alive at the toxicity check (mostly the fifth day); where none is given, no animal had died by that day.
Tested on: BDF1 mice, P388 leukemia ip, median survival T/C
Assay: NCI In Vivo Anticancer Drug Screen. Data for tumor model P388 Leukemia (intraperitoneal) in B6D2F1 (BDF1) mice
Conditions: T/C endpoint: median survival time, higher T/C = longer survival
Method in brief: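 Mice carrying the transplantable tumour receive compound or vehicle. Survival is followed in each arm, and the treated measure is divided by the vehicle measure.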

[1] = dose: 25.0 mg/kg/injection, schedule: Q04DX003 (ip), vehicle: Klucel (hydroxypropylcellulose) (HPC)
[2] = dose: 50.0 mg/kg/injection, schedule: Q01DX009 (ip), vehicle: saline
[3] = dose: 50.0 mg/kg/injection, schedule: Q04DX003 (ip), vehicle: Klucel (hydroxypropylcellulose) (HPC)
[4] = dose: 200.0 mg/kg/injection, schedule: Q01DX009 (ip), vehicle: saline
[5] = dose: 50.0 mg/kg/injection, schedule: Q04DX003 (ip), vehicle: saline with Tween-80

CC([CH2][Hg][Cl])c1ccccc1 (stereo unspecified)
T/C (dose: 6.25 mg/kg/injection, schedule: Q01DX009 (ip), vehicle: saline with Tween-80): 127 % of control

C=[CH][Sn]([CH]=C)([CH]=C)[O]C(C)=O
T/C (dose: 8.2 mg/kg/injection, schedule: Q01DX009 (ip), vehicle: saline): 146 % of control | T/C (dose: 18.0 mg/kg/injection, schedule: Q01DX009 (ip), vehicle: saline): 149 % of control | survivor count (dose: 25.0 mg/kg/injection, schedule: Q01DX009 (ip), vehicle: Klucel (hydroxypropylcellulose) (HPC)): 0 of 6 | T/C [1]: 126 % of control [5 of 6 alive] | survivor count [1]: 2 of 6 | survivor count [2]: 0 of 6 | survivor count [3]: 0 of 6

O=S(O)OS(=O)O
T/C [4]: 125 % of control

CCCCCCCSc1ncnc2c1ncn2CO
T/C (dose: 100.0 mg/kg/injection, schedule: Q01DX009 (ip), vehicle: saline): 135 % of control | T/C [4]: 125 % of control | survivor count (dose: 400.0 mg/kg/injection, schedule: Q01DX009 (ip), vehicle: saline): 6 of 6 | survivor count (dose: 800.0 mg/kg/injection, schedule: Q01DX009 (ip), vehicle: saline): 1 of 6

CCOC(=O)C(Cc1ccc(N(CCCl)CCCl)cc1)NP1(=O)NCCCO1 (stereo unspecified)
T/C (dose: 4.0 mg/kg/injection, schedule: Q04DX003 (ip), vehicle: Klucel (hydroxypropylcellulose) (HPC)): 126 % of control | T/C (dose: 6.0 mg/kg/injection, schedule: Q04DX003 (ip), vehicle: Klucel (hydroxypropylcellulose) (HPC)): 130 % of control | survivor count (dose: 50.0 mg/kg/injection, schedule: Q01DX009 (ip), vehicle: Klucel (hydroxypropylcellulose) (HPC)): 6 of 6 | survivor count (dose: 100.0 mg/kg/injection, schedule: Q01DX009 (ip), vehicle: Klucel (hydroxypropylcellulose) (HPC)): 5 of 6 | survivor count (dose: 200.0 mg/kg/injection, schedule: Q01DX009 (ip), vehicle: Klucel (hydroxypropylcellulose) (HPC)): 0 of 6

COc1ccc(CC2c3ccccc3CC[N+]2(C)C)cc1Oc1ccc(CC2c3ccccc3CC[N+]2(C)C)cc1 (stereo unspecified)
survivor count (dose: 1.56 mg/kg/injection, schedule: Q04DX003 (ip), vehicle: saline): 0 of 6 | survivor count (dose: 3.13 mg/kg/injection, schedule: Q04DX003 (ip), vehicle: saline with Tween-80): 1 of 6 | survivor count (dose: 6.25 mg/kg/injection, schedule: Q04DX003 (ip), vehicle: saline with Tween-80): 0 of 6 | survivor count (dose: 25.0 mg/kg/injection, schedule: Q04DX003 (ip), vehicle: saline with Tween-80): 0 of 6 | survivor count [5]: 0 of 6 | survivor count (dose: 100.0 mg/kg/injection, schedule: Q04DX003 (ip), vehicle: saline with Tween-80): 0 of 6

C#CCN(C)Cc1ccccc1
survivor count (dose: 400.0 mg/kg/injection, schedule: Q01DX010 (ip), vehicle: saline): 0 of 6

c1ccc(N2CCCCCN2c2ccccc2)cc1
survivor count (dose: 400.0 mg/kg/injection, schedule: Q01DX001 (ip), vehicle: saline with Tween-80): 6 of 6

CCCCCCOCCN1CCN(CCCN2c3ccccc3Sc3ccc(C(F)(F)F)cc32)CC1
T/C (dose: 12.5 mg/kg/injection, schedule: Q04DX003 (ip), vehicle: saline with Tween-80): 130 % of control | T/C [5]: 129 % of control

O=C(Oc1ccccc1)c1cc(O)c(O)c(O)c1
T/C (dose: 200.0 mg/kg/injection, schedule: Q01DX005 (ip), vehicle: saline with Tween-80): 127 % of control

COc1cccc2c1C(=O)c1c(O)c3c(c(O)c1C2=O)C[C@@](O)(/C(C)=N/NC(=O)c1ccc(O)cc1)C[C@@H]3OC1CC(N)C(O)C(C)O1 (stereo partly specified)
T/C (dose: 0.25 mg/kg/injection, schedule: Q01DX009 (ip), vehicle: water): 125 % of control

COc1cccc2c1C(=O)c1c(O)c3c(c(O)c1C2=O)C[C@@](O)(C(=O)O)C[C@@H]3OC1CC(N)C(O)C(C)O1 (stereo partly specified)
T/C (dose: 6.25 mg/kg/injection, schedule: Q01DX009 (ip), vehicle: water): 142 % of control

COc1cccc(OC)c1C(c1c(OC)cccc1OC)c1c(OC)cccc1OC
T/C [5]: 129 % of control | survivor count (dose: 200.0 mg/kg/injection, schedule: Q01DX009 (ip), vehicle: saline with Tween-80): 1 of 6 | survivor count (dose: 400.0 mg/kg/injection, schedule: Q01DX009 (ip), vehicle: saline with Tween-80): 1 of 6

N#CC1(Nc2ccccc2)CCCCC1
survivor count (dose: 50.0 mg/kg/injection, schedule: Q01DX009 (ip), vehicle: saline with Tween-80): 0 of 6 | survivor count (dose: 100.0 mg/kg/injection, schedule: Q01DX009 (ip), vehicle: saline with Tween-80): 0 of 6 | survivor count (dose: 200.0 mg/kg/injection, schedule: Q04DX003 (ip), vehicle: saline with Tween-80): 0 of 6

CC(C)=CCNc1ncnc2nc[nH]c12
survivor count (dose: 40.0 mg/kg/injection, schedule: Q01DX009 (ip), vehicle: saline with Tween-80): 6 of 6

O=C1c2ccccc2C(=O)c2c(NCCNCCO)ccc(NCCNCCO)c21
survivor count (dose: 16.0 mg/kg/injection, schedule: Q01DX009 (ip), vehicle: water): 6 of 6 | T/C (dose: 25.0 mg/kg/injection, schedule: Q01DX009 (ip), vehicle: saline): 126 % of control | survivor count (dose: 32.0 mg/kg/injection, schedule: Q01DX009 (ip), vehicle: water): 5 of 6 | survivor count [2]: 10 of 10 (2×) | survivor count (dose: 64.0 mg/kg/injection, schedule: Q01DX009 (ip), vehicle: water): 5 of 6 | survivor count (dose: 128.0 mg/kg/injection, schedule: Q04DX003 (ip), vehicle: saline with Tween-80): 5 of 6

Cc1noc(N)c1N
T/C (dose: 400.0 mg/kg/injection, schedule: Q01DX009 (ip), vehicle: water): 130 % of control

Cc1cc(C)c([I+]c2c(C)cc(C)cc2C)c(C)c1
T/C (dose: 0.82 mg/kg/injection, schedule: Q04DX003 (ip), vehicle: saline): 125 % of control | T/C (dose: 1.65 mg/kg/injection, schedule: Q04DX003 (ip), vehicle: saline): 130 % of control | survivor count (dose: 2.48 mg/kg/injection, schedule: Q04DX003 (ip), vehicle: saline): 4 of 6 | survivor count (dose: 3.3 mg/kg/injection, schedule: Q04DX003 (ip), vehicle: saline): 3 of 6 | survivor count (dose: 12.0 mg/kg/injection, schedule: Q01DX009 (ip), vehicle: Klucel (hydroxypropylcellulose) (HPC)): 3 of 6 | T/C (dose: 12.0 mg/kg/injection, schedule: Q04DX003 (ip), vehicle: Klucel (hydroxypropylcellulose) (HPC)): 125 and 133 % of control | T/C (dose: 12.0 mg/kg/injection, schedule: Q04DX003 (ip), vehicle: saline with Tween-80): 143 % of control | survivor count (dose: 18.0 mg/kg/injection, schedule: Q04DX003 (ip), vehicle: Klucel (hydroxypropylcellulose) (HPC)): 6 of 6 | survivor count (dose: 18.0 mg/kg/injection, schedule: Q04DX003 (ip), vehicle: saline with Tween-80): 4 of 6 | survivor count [1]: 2 of 6 | survivor count [3]: 0 of 6 | survivor count (dose: 100.0 mg/kg/injection, schedule: Q04DX003 (ip), vehicle: Klucel (hydroxypropylcellulose) (HPC)): 0 of 6 | survivor count (dose: 200.0 mg/kg/injection, schedule: Q04DX003 (ip), vehicle: Klucel (hydroxypropylcellulose) (HPC)): 0 of 6 | survivor count (dose: 400.0 mg/kg/injection, schedule: Q04DX003 (ip), vehicle: Klucel (hydroxypropylcellulose) (HPC)): 0 of 6

Fc1ccc(P(c2ccc(F)cc2)c2ccc(F)cc2)cc1
survivor count (dose: 12.5 mg/kg/injection, schedule: Q01DX009 (ip), vehicle: Klucel (hydroxypropylcellulose) (HPC)): 6 of 6

CN(C)N=C(c1ccccc1)c1ccccc1
survivor count (dose: 150.0 mg/kg/injection, schedule: Q01DX009 (ip), vehicle: Klucel (hydroxypropylcellulose) (HPC)): 0 of 6 | survivor count (dose: 225.0 mg/kg/injection, schedule: Q01DX009 (ip), vehicle: Klucel (hydroxypropylcellulose) (HPC)): 0 of 6 | survivor count (dose: 335.0 mg/kg/injection, schedule: Q01DX009 (ip), vehicle: Klucel (hydroxypropylcellulose) (HPC)): 0 of 6

CC(=O)OCC1OC(O)C(NC(=O)C(F)(F)F)C(OC(C)=O)C1OC(C)=O (stereo unspecified)
survivor count (dose: 25.0 mg/kg/injection, schedule: Q04DX003 (ip), vehicle: saline): 3 of 6 | survivor count (dose: 50.0 mg/kg/injection, schedule: Q04DX003 (ip), vehicle: saline): 0 of 6 | survivor count (dose: 50.0 mg/kg/injection, schedule: Q## X003 (ip), vehicle: saline): 0 of 6
